Data published in PMC9112550, “Optimization of the antimicrobial peptide Bac7 by deep mutational scanning” (BMC Biology, 2022).

Tested on: E. coli TOP10
Test: Deep mutational scanning, epPCR (randomly mutagenized) Bac7_1-23 library, intracellular self-screening with NGS
Assay type: cell-based
Conditions: epPCR library, 601,551 variants; rank 1 = most active; qualitative measure

For “RRIRPRPTRLPRPRLRPLSFPRP [epPCR library peptide ID 355853]”, the “Rank by antimicrobial activity” value was 5.

For “RRIRPRSPTLPRPRPHPLPFTRP [epPCR library peptide ID 379325]”, the “Rank by antimicrobial activity” value was 1.
